Measured values taken from PMC11645656, “MRGPRX4 mediates phospho-drug associated pruritus in a humanized mouse model” (Science translational medicine, 2024).
“And” between values parts separate entries of the source, which are not always exact repeats. Equal values may be shown once. The source gives many values for each of these; only a part stands here.

System: MRGPRX4-expressing HEK293 cells (Gαq signaling pathway)
Experiment: Pharmacological blocker experiments: phospho-drug evoked calcium response in MRGPRX4-expressing HEK293 cells after inhibitor preincubation; note: test concentration or dose not given here
Settings: + YM254890

## O=C1NC(c2ccccc2)(c2ccccc2)C(=O)N1COP(=O)(O)O [Fosphenytoin]
Time 85.9136 s
  calcium response trace, fig. S2B: 1.037 (2×) and 1.026 (2×) and 1.007 and 1.02 and 1.028
Time 88.4176 s
  calcium response trace, fig. S2B: 1.026 and 1.02 and 1.014 and 1.022 and 1.015 and 1.0295 and 1.045
Time 90.9336 s
  calcium response trace, fig. S2B: 1.027 and 0.9997 and 1.024 and 1.0132 and 1.032 and 1.042
Time 93.4144 s
  calcium response trace, fig. S2B: 1.029 (2×) and 1.007 and 1.003 and 1.02 and 1.021 and 1.036
Time 95.908 s
  calcium response trace, fig. S2B: 1.025 and 1.019 and 1.008 and 1.023 and 1.016 and 1.029 and 1.03
Time 98.4016 s
  calcium response trace, fig. S2B: 1.028 and 1.017 and 1.002 and 1.014 and 1.027 and 1.037
Time 100.895 s
  calcium response trace, fig. S2B: 1.033 and 1.013 and 1.001 and 1.012 (2×) and 1.0249
Time 103.389 s
  calcium response trace, fig. S2B: 1.014 and 1.0103 and 1.008 and 1.02 and 1.021 and 1.024 and 1.04
Time 105.892 s
  calcium response trace, fig. S2B: 1.024 (2×) and 1.011 and 1.004 and 1.016 and 1.022 and 1.034
Time 108.406 s
  calcium response trace, fig. S2B: 1.026 and 1.019 and 0.9963 and 1.016 (2×) and 1.023 and 1.034
Time 110.9 s
  calcium response trace, fig. S2B: 1.022 and 1.011 and 1.006 and 1.017 and 1.0054 and 1.028 and 1.035
Time 113.413 s
  calcium response trace, fig. S2B: 1.021 and 1.014 and 0.9988 and 1.017 and 1.0213 and 1.031 and 1.022
Time 115.917 s
  calcium response trace, fig. S2B: 1.015 (2×) and 1.007 and 1.027 and 1.0142 and 1.029 and 1.032
Time 118.43 s
  calcium response trace, fig. S2B: 1.017 and 1.009 and 0.9995 and 1.025 and 1.0269 and 1.026
Time 120.934 s
  calcium response trace, fig. S2B: 1.019 and 1.006 and 1.005 and 1.026 and 1.018 and 1.024 and 1.03
Time 123.45 s
  calcium response trace, fig. S2B: 1.017 and 1.008 and 0.9997 and 1.016 and 1.015 and 1.025 and 1.023
Time 125.93 s
  calcium response trace, fig. S2B: 1.02 and 1.005 and 0.9935 and 1.021 and 1.0114 and 1.019 and 1.022
Time 128.414 s
  calcium response trace, fig. S2B: 1.023 and 1.011 (2×) and 0.9952 and 1.016 and 1.013 and 1.029
Time 130.908 s
  calcium response trace, fig. S2B: 1.0129 and 1.007 and 0.9962 and 1.016 (2×) and 1.022 and 1.018
Time 133.402 s
  calcium response trace, fig. S2B: 1.018 (2×) and 1.004 and 0.997 and 1.017 and 1.014 and 1.024
Time 135.905 s
  calcium response trace, fig. S2B: 1.018 and 1.0081 and 0.9979 and 1.022 and 1.01 and 1.026 and 1.027
Time 138.41 s
  calcium response trace, fig. S2B: 1.018 and 1.005 and 0.9995 and 1.012 and 1.011 and 1.0235
Time 140.942 s
  calcium response trace, fig. S2B: 1.018 and 1 and 0.9918 and 1.023 and 1.015 and 1.02 and 1.021
Time 143.446 s
  calcium response trace, fig. S2B: 1.024 and 0.9919 and 0.9969 and 1.012 and 1.021 and 1.013
Time 145.949 s
  calcium response trace, fig. S2B: 1.0105 and 0.9955 and 0.9869 and 1.0179 and 1.022 and 1.013
Time 148.465 s
  calcium response trace, fig. S2B: 1.017 and 1.003 and 0.9924 and 1.018 and 1.013
Time 150.996 s
  calcium response trace, fig. S2B: 1.013 and 0.999 and 0.9975 and 1.02 and 1.004 and 1.015 and 1.014
Time 153.49 s
  calcium response trace, fig. S2B: 1.014 and 0.9955 and 0.9942 and 1.019 and 1.008 and 1.021 and 1.007
Time 156.003 s
  calcium response trace, fig. S2B: 1.011 and 0.9977 and 0.9849 and 1.012 and 1.014 and 1.021 and 1.018
Time 158.497 s
  calcium response trace, fig. S2B: 1.013 (2×) and 1.001 and 0.9926 and 1.016 and 1.007 and 1.021
Time 161 s
  calcium response trace, fig. S2B: 1.017 and 0.9982 and 0.9916 and 1.0112 and 1.007 and 1.016 and 1.014
Time 163.494 s
  calcium response trace, fig. S2B: 1.016 (2×) and 1.002 and 0.9923 and 1.007 and 1.006 and 1.015
Time 165.987 s
  calcium response trace, fig. S2B: 1.019 and 1.001 and 1 and 1.016 and 1.011 and 1.0092 and 1.017
Time 168.481 s
  calcium response trace, fig. S2B: 1.011 and 0.9958 and 0.9977 and 1.01 (2×) and 1.017 and 1.015
Time 170.974 s
  calcium response trace, fig. S2B: 1.01 and 0.9922 and 0.989 and 1.005 and 1.021 and 1.014
Time 173.488 s
  calcium response trace, fig. S2B: 1.011 and 0.9995 and 0.9904 and 1.006 and 1.013 and 1.022 and 1.018
Time 175.991 s
  calcium response trace, fig. S2B: 1.013 and 0.9925 and 0.9931 and 1.004 and 1.01 and 1.02 and 1.008
Time 178.505 s
  calcium response trace, fig. S2B: 1.004 and 0.9917 and 0.9911 and 1.011 and 1.02 and 1.012 (2×)
Time 181.018 s
  calcium response trace, fig. S2B: 1.009 (2×) and 0.9994 and 0.991 and 1.01 and 1.024 and 1.007
Time 183.532 s
  calcium response trace, fig. S2B: 1.013 (2×) and 0.9962 and 0.9954 and 1.006 and 1.016 and 1.002
Time 186.036 s
  calcium response trace, fig. S2B: 1.019 and 1.003 (3×) and 0.9973 and 1.018 and 1.013
Time 188.549 s
  calcium response trace, fig. S2B: 1.007 and 0.9911 and 0.9942 and 1.015 and 1.0145 and 1.0075
Time 191.053 s
  calcium response trace, fig. S2B: 1.01 and 0.9867 and 0.9983 and 1.009 and 1.011 (2×) and 1.006
Time 193.556 s
  calcium response trace, fig. S2B: 1.015 and 0.9909 and 0.9953 and 1.006 and 1.007 and 1.021 and 1.009
Time 196.05 s
  calcium response trace, fig. S2B: 1.0074 and 0.997 and 0.9992 and 1.016 and 1.014 (2×) and 1.005
Time 198.533 s
  calcium response trace, fig. S2B: 1.015 and 0.9912 and 0.9942 and 1.009 and 1.007 and 1.02 and 1.005
